The supplement of paper PMC8551327
Structures can show the parent of a compound that is named as a salt. The list shows a part of the results. Cut-off read from the data, not from the text of the source: active = 1.25 or more and inactive = the rest. Many values rest on one well or one pass, so single values are uncertain.

Tested on: Kcc2-LUC knock-in mouse primary cortical neurons (Kcc2 promoter reporter)
Experiment: Kcc2 promoter-driven luciferase activity relative to vehicle control (fold of vehicle (ratio)); higher = stronger Kcc2 promoter activation (Kcc2 expression enhancer)
Details: 100 nM; 48 h

Kcc2 promoter-driven luciferase activity, active:
CC1(O)C=CC(=O)C=C1 [4-Hydroxy-4-methyl-2,5-cyclohexadien-1-one] 1.37

Kcc2 promoter-driven luciferase activity, inactive:
CO[C@H]1[C@H](OC(=O)c2ccc(C)[nH]2)[C@H](O)[C@@H](Oc2ccc3c(O)c(NC(=O)c4c[nH]c(C(=O)Nc5c(O)c6ccc(O[C@H]7OC(C)(C)[C@@H](OC)[C@H](OC(=O)c8ccc(C)[nH]8)[C@@H]7O)c(C)c6oc5=O)c4C)c(=O)oc3c2C)OC1(C)C [Coumermycin A1] 0.98
COc1c(O)cc2oc3cc(O)c(CC=C(C)C)c(O)c3c(=O)c2c1CC=C(C)C [Mangostin] 0.963
COc1ccc(/C=C2\Cc3ccccc3C2=O)cc1OC [(2E)-2-[(3,4-dimethoxyphenyl)methylidene]-3H-inden-1-one] 0.76
Oc1cc2c3c(c1)c1cc4c(cc1c[n+]3CC2)OCO4 [Lycobetaine Chloride] 0.97
COc1cccc2c1C(=O)c1c(O)c3c(c(O)c1C2=O)C[C@@](O)(C(C)=O)C[C@@H]3O[C@@H]1C[C@@H](N(C)C)[C@@H](O)[C@@H](C)O1 [N,N-Dimethyldaunomycin hydrochloride] 0.01
CC(C)(O)CCC(O)C(C)(O)C1CCC2(O)C3=CC(=O)C4(O)CC(O)C(O)CC4(C)C3CCC12C.CC(C)(O)CCC(O)C(C)(O)C1CCC2(O)C3=CC(=O)C4CC(O)C(O)CC4(C)C3CCC12C (configuration not stated) [Polypodies A & B] 1.16

As a short view, part of the list above.
Kcc2 promoter-driven luciferase activity, inactive:
COc1ccc(/C=C2\Cc3ccccc3C2=O)cc1OC [(2E)-2-[(3,4-dimethoxyphenyl)methylidene]-3H-inden-1-one] 0.76
Oc1cc2c3c(c1)c1cc4c(cc1c[n+]3CC2)OCO4 [Lycobetaine Chloride] 0.97
